Reference: the supplement of paper PMC7666118
The other results are listed elsewhere or left out.

Chains of the proteins cited; added tags and fusions are not shown. Lines headed by an entry give the natural chain unless they say otherwise; changes in a name come on top.
UniProt Q9P2J5: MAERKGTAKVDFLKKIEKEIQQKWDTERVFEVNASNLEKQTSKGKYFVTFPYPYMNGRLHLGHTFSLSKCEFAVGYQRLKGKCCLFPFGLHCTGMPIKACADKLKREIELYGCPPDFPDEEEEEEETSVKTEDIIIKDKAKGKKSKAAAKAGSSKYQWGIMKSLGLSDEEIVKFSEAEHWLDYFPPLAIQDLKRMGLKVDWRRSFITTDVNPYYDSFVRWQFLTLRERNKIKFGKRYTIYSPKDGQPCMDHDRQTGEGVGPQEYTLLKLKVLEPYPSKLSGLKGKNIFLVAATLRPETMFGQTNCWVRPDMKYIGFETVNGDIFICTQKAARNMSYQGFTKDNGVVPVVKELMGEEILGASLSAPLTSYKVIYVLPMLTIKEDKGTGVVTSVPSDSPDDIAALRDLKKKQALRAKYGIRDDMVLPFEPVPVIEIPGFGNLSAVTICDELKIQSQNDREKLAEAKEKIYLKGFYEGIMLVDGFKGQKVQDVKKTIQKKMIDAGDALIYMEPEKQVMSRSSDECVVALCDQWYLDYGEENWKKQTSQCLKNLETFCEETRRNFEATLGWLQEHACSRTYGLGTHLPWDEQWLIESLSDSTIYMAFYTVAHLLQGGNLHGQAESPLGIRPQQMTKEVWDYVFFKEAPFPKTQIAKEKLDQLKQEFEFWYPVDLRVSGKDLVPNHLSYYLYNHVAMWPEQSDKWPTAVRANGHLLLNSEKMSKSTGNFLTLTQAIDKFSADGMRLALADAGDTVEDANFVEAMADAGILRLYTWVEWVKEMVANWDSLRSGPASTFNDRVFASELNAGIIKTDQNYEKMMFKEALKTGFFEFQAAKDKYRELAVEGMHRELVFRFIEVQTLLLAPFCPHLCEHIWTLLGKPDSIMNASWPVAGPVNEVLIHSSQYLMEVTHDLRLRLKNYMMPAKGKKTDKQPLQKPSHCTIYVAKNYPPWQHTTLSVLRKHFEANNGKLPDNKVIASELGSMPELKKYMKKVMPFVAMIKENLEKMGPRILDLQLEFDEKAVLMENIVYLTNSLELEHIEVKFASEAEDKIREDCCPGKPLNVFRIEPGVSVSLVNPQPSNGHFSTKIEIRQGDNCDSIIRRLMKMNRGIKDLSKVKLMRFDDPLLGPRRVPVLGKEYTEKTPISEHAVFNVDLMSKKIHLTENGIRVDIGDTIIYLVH
UniProt P48059, whole entry: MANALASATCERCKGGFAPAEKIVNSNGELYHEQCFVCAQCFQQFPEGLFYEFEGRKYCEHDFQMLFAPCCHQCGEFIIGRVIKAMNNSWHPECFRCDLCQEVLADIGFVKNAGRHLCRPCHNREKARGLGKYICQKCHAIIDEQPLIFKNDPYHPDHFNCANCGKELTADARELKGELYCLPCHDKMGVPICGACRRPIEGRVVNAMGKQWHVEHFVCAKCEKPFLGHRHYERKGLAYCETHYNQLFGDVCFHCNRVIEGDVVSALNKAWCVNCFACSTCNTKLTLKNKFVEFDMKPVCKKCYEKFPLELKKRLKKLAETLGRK
UniProt Q5U5X0: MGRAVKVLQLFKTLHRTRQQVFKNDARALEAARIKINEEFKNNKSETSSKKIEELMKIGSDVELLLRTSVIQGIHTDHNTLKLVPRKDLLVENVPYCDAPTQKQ
UniProt Q92615, whole entry: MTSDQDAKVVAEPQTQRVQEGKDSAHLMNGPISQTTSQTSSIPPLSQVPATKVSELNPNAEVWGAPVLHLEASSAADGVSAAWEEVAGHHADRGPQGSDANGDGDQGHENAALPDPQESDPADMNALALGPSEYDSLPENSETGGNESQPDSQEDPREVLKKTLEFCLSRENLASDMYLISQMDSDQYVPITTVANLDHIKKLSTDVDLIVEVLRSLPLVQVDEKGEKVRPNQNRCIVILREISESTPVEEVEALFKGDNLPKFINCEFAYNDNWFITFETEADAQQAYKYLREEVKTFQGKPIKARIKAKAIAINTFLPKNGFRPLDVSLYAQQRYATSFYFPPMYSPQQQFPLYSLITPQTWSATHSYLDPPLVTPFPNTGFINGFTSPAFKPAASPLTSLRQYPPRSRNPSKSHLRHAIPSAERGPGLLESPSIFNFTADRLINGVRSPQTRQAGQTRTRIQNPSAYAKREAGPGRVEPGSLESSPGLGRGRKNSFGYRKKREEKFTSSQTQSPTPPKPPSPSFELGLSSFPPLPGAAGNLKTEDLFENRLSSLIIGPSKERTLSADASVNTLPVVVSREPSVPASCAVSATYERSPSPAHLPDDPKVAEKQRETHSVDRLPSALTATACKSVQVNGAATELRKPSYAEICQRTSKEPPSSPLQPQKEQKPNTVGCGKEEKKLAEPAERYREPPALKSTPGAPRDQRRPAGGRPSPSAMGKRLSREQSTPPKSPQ
UniProt Q9NQ48: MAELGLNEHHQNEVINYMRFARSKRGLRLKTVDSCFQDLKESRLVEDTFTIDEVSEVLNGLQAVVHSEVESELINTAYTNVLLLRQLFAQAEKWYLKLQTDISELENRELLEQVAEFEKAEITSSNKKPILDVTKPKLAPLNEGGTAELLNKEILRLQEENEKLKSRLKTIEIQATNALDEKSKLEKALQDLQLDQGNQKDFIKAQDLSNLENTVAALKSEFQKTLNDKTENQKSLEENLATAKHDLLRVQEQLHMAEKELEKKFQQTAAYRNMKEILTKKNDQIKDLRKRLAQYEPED
UniProt O95239: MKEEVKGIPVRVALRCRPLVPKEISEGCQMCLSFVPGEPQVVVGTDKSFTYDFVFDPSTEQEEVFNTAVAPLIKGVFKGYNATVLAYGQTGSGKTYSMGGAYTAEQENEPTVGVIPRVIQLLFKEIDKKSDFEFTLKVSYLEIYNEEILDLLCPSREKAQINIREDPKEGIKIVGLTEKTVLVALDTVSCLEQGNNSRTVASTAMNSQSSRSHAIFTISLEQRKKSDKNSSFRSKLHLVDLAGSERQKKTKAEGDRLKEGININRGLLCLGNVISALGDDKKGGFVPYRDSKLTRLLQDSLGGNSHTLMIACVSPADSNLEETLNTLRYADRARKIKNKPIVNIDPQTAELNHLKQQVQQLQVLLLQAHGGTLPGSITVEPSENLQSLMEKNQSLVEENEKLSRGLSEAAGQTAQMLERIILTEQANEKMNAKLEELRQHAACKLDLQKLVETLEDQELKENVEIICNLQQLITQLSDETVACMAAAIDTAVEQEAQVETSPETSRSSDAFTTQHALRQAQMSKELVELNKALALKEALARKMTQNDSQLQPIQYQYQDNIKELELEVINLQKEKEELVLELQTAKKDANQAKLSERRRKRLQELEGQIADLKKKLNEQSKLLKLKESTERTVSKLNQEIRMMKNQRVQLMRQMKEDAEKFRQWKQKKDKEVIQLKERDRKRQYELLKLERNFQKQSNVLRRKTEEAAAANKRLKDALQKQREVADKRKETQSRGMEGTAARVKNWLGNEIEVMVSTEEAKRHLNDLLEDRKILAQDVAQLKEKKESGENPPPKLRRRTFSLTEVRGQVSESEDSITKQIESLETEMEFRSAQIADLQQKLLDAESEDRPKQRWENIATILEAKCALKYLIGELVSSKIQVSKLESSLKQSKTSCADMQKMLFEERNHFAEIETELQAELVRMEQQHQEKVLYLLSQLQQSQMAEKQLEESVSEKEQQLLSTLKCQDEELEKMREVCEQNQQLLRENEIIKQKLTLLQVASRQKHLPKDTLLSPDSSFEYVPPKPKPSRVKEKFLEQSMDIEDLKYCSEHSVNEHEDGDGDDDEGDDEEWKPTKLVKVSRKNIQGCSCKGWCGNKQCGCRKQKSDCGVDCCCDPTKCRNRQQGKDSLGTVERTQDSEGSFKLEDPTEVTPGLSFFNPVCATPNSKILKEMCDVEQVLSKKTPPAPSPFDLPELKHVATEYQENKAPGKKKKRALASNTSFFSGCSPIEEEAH
UniProt Q9Y3D7: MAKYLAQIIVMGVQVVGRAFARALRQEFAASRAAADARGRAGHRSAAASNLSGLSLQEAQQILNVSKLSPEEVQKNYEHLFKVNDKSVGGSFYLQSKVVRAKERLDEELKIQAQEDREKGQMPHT
UniProt Q9HCE5: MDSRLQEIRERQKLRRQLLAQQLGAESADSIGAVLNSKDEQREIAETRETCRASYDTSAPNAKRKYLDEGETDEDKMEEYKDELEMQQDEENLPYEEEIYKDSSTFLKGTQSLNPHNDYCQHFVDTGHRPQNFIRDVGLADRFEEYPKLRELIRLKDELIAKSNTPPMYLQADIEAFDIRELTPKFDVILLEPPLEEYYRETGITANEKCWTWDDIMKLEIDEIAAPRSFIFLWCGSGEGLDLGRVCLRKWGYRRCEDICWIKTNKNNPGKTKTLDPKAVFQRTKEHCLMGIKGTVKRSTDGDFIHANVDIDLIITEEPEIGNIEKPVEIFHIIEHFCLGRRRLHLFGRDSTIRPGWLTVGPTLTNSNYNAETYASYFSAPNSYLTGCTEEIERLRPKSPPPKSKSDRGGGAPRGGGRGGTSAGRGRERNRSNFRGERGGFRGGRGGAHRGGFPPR
UniProt Q6ZN28: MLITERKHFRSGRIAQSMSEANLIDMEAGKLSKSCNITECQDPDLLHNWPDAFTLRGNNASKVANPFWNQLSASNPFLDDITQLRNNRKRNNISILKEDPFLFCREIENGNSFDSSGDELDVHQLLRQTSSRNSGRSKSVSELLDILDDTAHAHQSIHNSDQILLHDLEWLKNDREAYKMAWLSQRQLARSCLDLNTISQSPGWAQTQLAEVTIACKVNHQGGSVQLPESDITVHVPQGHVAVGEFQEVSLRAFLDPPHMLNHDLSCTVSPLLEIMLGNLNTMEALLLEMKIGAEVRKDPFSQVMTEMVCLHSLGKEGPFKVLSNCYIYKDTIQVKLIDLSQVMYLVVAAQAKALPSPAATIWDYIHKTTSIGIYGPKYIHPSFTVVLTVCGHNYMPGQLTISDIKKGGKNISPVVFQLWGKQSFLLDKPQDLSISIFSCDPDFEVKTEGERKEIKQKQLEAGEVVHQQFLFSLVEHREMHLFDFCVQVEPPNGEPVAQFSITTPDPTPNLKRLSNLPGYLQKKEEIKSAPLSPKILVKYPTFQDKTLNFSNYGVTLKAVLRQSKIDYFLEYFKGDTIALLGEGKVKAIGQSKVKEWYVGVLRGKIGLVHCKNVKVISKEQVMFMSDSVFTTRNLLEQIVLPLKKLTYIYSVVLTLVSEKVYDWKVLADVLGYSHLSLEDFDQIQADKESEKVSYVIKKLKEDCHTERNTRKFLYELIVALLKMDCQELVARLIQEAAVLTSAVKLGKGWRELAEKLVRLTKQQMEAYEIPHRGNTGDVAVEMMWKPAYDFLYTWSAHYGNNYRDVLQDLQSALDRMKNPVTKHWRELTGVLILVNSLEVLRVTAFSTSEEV
UniProt O15525: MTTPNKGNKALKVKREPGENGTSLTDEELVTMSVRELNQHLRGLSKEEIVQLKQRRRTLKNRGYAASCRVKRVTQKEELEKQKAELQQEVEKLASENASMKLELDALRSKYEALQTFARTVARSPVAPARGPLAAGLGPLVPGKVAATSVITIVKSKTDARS
UniProt P09960: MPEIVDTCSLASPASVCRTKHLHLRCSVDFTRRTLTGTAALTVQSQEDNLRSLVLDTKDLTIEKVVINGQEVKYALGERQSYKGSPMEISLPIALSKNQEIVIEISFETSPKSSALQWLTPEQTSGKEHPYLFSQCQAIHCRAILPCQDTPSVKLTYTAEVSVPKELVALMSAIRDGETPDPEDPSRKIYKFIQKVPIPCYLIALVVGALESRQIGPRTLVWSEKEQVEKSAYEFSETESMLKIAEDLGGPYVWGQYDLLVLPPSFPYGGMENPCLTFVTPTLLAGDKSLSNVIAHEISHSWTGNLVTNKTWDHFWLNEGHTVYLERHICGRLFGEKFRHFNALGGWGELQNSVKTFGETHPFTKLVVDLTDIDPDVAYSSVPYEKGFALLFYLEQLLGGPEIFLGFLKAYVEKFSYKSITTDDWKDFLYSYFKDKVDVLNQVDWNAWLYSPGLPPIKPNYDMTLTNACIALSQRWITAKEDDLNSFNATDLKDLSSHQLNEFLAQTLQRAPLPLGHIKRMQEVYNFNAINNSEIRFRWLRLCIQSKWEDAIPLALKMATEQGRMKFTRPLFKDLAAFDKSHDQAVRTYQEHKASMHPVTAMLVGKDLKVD
UniProt Q8IXQ4: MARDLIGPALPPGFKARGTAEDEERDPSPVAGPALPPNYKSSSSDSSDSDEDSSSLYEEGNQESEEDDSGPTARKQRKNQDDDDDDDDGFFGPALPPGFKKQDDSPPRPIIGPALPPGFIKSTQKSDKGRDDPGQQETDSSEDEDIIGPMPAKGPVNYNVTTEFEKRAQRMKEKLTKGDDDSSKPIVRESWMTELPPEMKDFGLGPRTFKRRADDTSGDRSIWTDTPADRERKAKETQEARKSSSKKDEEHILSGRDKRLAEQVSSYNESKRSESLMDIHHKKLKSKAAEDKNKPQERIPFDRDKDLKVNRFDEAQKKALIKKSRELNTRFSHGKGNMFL
UniProt O15116: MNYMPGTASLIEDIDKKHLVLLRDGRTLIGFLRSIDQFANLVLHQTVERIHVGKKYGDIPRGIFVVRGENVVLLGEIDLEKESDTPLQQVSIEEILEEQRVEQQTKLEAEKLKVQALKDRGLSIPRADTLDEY

Compound: COc1ccc(Cn2ccc3ccc(C(=O)NO)cc32)cc1
Assay: dose-dependent thermal stabilisation call (2D-TPP, DLPTP, 10% FDR) (binary (1 = stabilised)); higher = stabilised by the compound
Conditions: system: HL-60 intact cells; concentration range 0.04-10 µM

Row | Target | dose-dependent thermal stabilisation call
1 | M6PR (UniProt P20645) | inactive: 0
2 | LOC647000 | inactive: 0
3 | LYAR (UniProt Q9NX58) | inactive: 0
4 | LARS (UniProt Q9P2J5) | inactive: 0
5 | KIAA1524 (UniProt Q8TCG1) | inactive: 0
6 | LIMS1 (UniProt P48059) | inactive: 0
7 | LDHA (UniProt P00338) | inactive: 0
8 | KRR1 (UniProt Q13601) | inactive: 0
9 | LYRM7 (UniProt Q5U5X0) | inactive: 0
10 | LARP5 (UniProt Q92615) | inactive: 0
11 | LZTFL1 (UniProt Q9NQ48) | inactive: 0
12 | KIF4A (UniProt O95239) | inactive: 0
13 | KIF11 (UniProt P52732) | inactive: 0
14 | LOC389203 | inactive: 0
15 | LRPPRC (UniProt P42704) | inactive: 0
16 | LRRC33 (UniProt Q86YC3) | inactive: 0
17 | LOC152217 | inactive: 0
18 | LOC100130932 | inactive: 0
19 | LSMD1 (UniProt Q9BRA0) | inactive: 0

Row | Target | dose-dependent thermal stabilisation call
20 | KIAA1712 (UniProt Q9C0F1) | inactive: 0
21 | KIAA1147 (UniProt A4D1U4) | inactive: 0
22 | MAGMAS (UniProt Q9Y3D7) | inactive: 0
23 | KIAA1627 (UniProt Q9HCE5) | inactive: 0
24 | MACC1 (UniProt Q6ZN28) | inactive: 0
25 | MAFG (UniProt O15525) | inactive: 0
26 | LTA4H (UniProt P09960) | inactive: 0
27 | LDLR (UniProt P01130) | inactive: 0
28 | LAPTM5 (UniProt Q13571) | inactive: 0
29 | KIAA1704 (UniProt Q8IXQ4) | inactive: 0
30 | LSM1 (UniProt O15116) | inactive: 0
31 | LBR (UniProt Q14739) | inactive: 0
32 | LMNB2 (UniProt Q03252) | inactive: 0
33 | KIF22 (UniProt Q14807) | inactive: 0
34 | KPNA2 (UniProt P52292) | inactive: 0
35 | KIAA0754 | inactive: 0
36 | LOC284889 | inactive: 0
37 | KIAA2013 (UniProt Q8IYS2) | inactive: 0
38 | LOC100133916 | inactive: 0

Reprinted at random: three records from the list, in no set order.
Row | Target | dose-dependent thermal stabilisation call
27 | LDLR (UniProt P01130) | inactive: 0
22 | MAGMAS (UniProt Q9Y3D7) | inactive: 0
24 | MACC1 (UniProt Q6ZN28) | inactive: 0
